Test results published in publication PMC12040169 (PLOS Biology, 2025).
The list shows a part of the results.

Test system: T1, CTL2-GFP (C. trachomatis L2/434/Bu, GFP-expressing)
T1 construct: L2/434/Bu, GFP-expressing
Set-up: species or system HeLa; Intracellular C. trachomatis growth in HeLa cells, bulk GFP fluorescence relative to DMSO
Details: bulk GFP, single well; 28.5 h, 10 µM; inhibitor

Compound	% of control remaining [%]
Cc1cccc(Oc2ccccc2NS(=O)(=O)c2ccc3c(c2)N(CC(=O)O)C(=O)CO3)c1 [CBK295287]	130.099
C[C@H]1CN2C[C@H](O)CC2CN1Cc1ccc(Br)s1 (stereo partly drawn) [CBK285439]	107.687
O=C1c2ccccc2C(=O)N1CCN1CCN(Cc2ccccc2)CC1 [CBK074813]	102.049
COc1ccc(OC)c(-n2c(=O)[nH]c3ccccc3c2=O)c1 [CBK287825]	94.1073
CC(C)Nc1cc(OCCCc2ccncc2)ncn1 [CBK115886]	88.9852
O=C(O)c1ccc(CN2C(=O)COc3ccccc32)o1 [CBK270276]	136.526
Cn1cc(CN[C@@H]2CCC(=O)N[C@H]2c2cc(F)cc(F)c2)cn1 [CBK282913]	102.022
CC(=O)Nc1ccc(NC2SC(=O)N(c3ccccc3)C2=O)cc1 (stereo not drawn) [CBK085110]	126.144
CCc1c(C)nc(SC(C(=O)O)c2ccccc2)c(C#N)c1C (stereo not drawn) [CBK270174]	113.98
CC(=O)Nc1cccc(-c2cncc(NCCc3ccccn3)n2)c1 [CBK065359]	120.03
CCc1nc(CN2CCCC(NCc3ccc(C(N)=O)cc3)C2)no1 (stereo not drawn) [CBK305373]	129.72
C(=N\N=C(/c1ccccc1)C12CN3CN(CN(C3)C1)C2)/c1ccc2c(c1)OCO2 [CBK261816]	105.033
CCOC(=O)N1CCN(CCC(=O)Nc2ccc3c(c2)CCC3)CC1 [CBK264220]	113.924
Cc1n[nH]c(C)c1Sc1n[nH]c(=O)[nH]c1=O [CBK027833]	100.726
CC1=NN(c2ccccc2)C(=O)/C1=C1/C(=O)Nc2c(C)cc(Br)cc21 [CBK263950]	114.823
Cc1cc(Cl)cc(Cl)c1S(=O)(=O)Nc1nc(-c2cccnc2)cs1 [CBK200035]	70.9568
CC1CCN(Cc2ccc(-c3ccc(CC(=O)NCc4ccc(C#N)cc4)cn3)cc2)CC1 [CBK158409]	122.629
Cc1nc(CC(=O)N2CCCC(c3cccc(Cc4ccc(Cl)cc4)n3)C2)cs1 (stereo not drawn) [CBK286505]	92.8822
CC(C)CN1CCC2(CC=CCN(Cc3ccc(F)cc3)C2=O)CC1 [CBK285521]	94.5941
Cn1c(=O)n(CC(=O)OCc2ccccc2)c2cccnc21 [CBK284019]	131.008
COc1ccc(Cc2cccc(C3CCN(C(=O)Cc4ccc(F)cc4)CC3)n2)cc1 [CBK286225]	91.8681

A draw from above in order of formula weight, falling.
Compound	% of control remaining [%]
Cn1cc(CN[C@@H]2CCC(=O)N[C@H]2c2cc(F)cc(F)c2)cn1 [CBK282913]	102.022
Cn1c(=O)n(CC(=O)OCc2ccccc2)c2cccnc21 [CBK284019]	131.008
CC(C)Nc1cc(OCCCc2ccncc2)ncn1 [CBK115886]	88.9852

Additional records.

Compound	% of control remaining [%]
CN1CCN(c2ccc(S(=O)(=O)Nc3cc(C(=O)O)cc(C(=O)O)c3)cc2[N+](=O)[O-])CC1 [CBK263862]	99.8034
Cc1ccc(C)c(NC(=O)C(C)Sc2nc3ccccc3nc2C)c1 (stereo not drawn) [CBK296744]	106.93
N#Cc1cnc2ccccc2c1N1CCC(C(=O)O)CC1 [CBK288050]	125.161
Nc1ccc2cc(-c3ccsc3)cnc2n1 [CBK081167]	107.095
COc1cc(CNc2cncc(-c3cccc(NC(C)=O)c3)n2)cc(OC)c1OC [CBK066133]	196.1
Oc1cccc(-c2cn3ccnc3c(NC3CC3)n2)c1 [CBK038076]	86.794
Cc1nc(C)c(C(=O)N2CCCC(c3cc4cccnc4[nH]3)C2)s1 (stereo not drawn) [CBK284995]	84.5197
CC1Cc2ccccc2N1C(=O)c1nn(C)cc1I (stereo not drawn) [CBK058268]	143.677
COc1ccc(CNC(=O)c2cc(S(=O)(=O)N(C)C)cs2)cc1 [CBK307579]	134.162
CN(C)S(=O)(=O)c1ccc(C(=O)C2=C(O)C(=O)N(Cc3cccnc3)C2c2ccncc2)cc1 (stereo not drawn) [CBK264714]	112.894
Cc1onc(-c2ccccc2)c1C(=O)NCCCn1ccnc1 [CBK262870]	117.356
CCCn1c(SCC(=O)N2c3ccc(F)cc3CCC2C)nnc1-c1cccnc1 (stereo not drawn) [CBK059187]	122.388
CCCN(CC1CC1)C(=O)CC1SC(NCC2CCCCC2)=NC1=O (stereo not drawn) [CBK067014]	89.7715
COc1cccc(C(=O)N2CCOC(c3cc(C(=O)NCC(C)C)c4ccccc4n3)C2)c1 (stereo not drawn) [CBK285894]	139.854
CCN1CCN(C(=O)Cc2cccnc2)CC1 [CBK200375]	107.007
CN(C)c1cccc(-c2cnc3[nH]c(=O)n(CCCO)c3n2)c1 [CBK065052]	98.6969
c1ccc(C2(CN3CCN(Cc4cccnc4)CC3)CC2)cc1 [CBK282793]	99.7803
Cc1cc(COc2ccc(C(F)(F)F)cn2)no1 [CBK115792]	114.721
CC(=O)Nc1cccc(-c2nccnc2C2CCCN(CCc3ccccc3)C2)c1 (stereo not drawn) [CBK286128]	104.169
CC(CN(C)C(=O)c1c[nH]nn1)Oc1ccc(Cl)c(Cl)c1 (stereo not drawn) [CBK306160]	132.381
Cc1cc(NN(Cc2ccccc2)Cc2ccccc2)n2c(nc3ccccc32)c1C#N [CBK262666]	100

Compound	% of control remaining [%]
Nc1nc(COc2ccc(F)cc2)nc(N2CCOCC2)n1 [CBK288183]	98.7251
Nc1ccc2ccc(-c3ccc4c(c3)CCO4)nc2n1 [CBK067625]	132.66
CN1CCC(N2CCN(C(=O)NCc3cccnc3)CC2)CC1 [CBK155889]	111.627
NS(=O)(=O)c1ccc(CCNC(=O)CN2C(=O)c3ccccc3C2=O)cc1 [CBK264377]	115.668
COc1ccc(CN2CCN(C(=O)c3cccc(F)c3)CC2)c(OC)c1OC [CBK074523]	125.39
CSc1ccccc1NC(=O)c1cc(Cl)sc1Cl [CBK057008]	137.653
CN1CCN(c2cc3ncccc3cc2F)CC1 [CBK066904]	85.835
CC(=O)Nc1cccc(C(=O)N2CCN(Cc3ccccn3)CC2)c1 [CBK304067]	124.278
COc1cc(OC)nc(C(NC(=O)C2CCN(Cc3ccc(N(C)C)cc3)CC2)c2ccc(F)cc2)n1 (stereo not drawn) [CBK148204]	109.142
Cc1c(C(=O)N(C)CCc2ccncc2)[nH]c2ccccc12 [CBK283271]	101.755
CCC(=O)c1c(CC)n[nH]c1-c1c(Cl)cccc1Cl [CBK107819]	175.877
CCc1cc(C(=O)Nc2nn(C)c3cccc(N4CCOCC4)c23)cs1 [CBK307419]	111.398
Cc1nc(OCC(=O)O)c(C#N)c2c1COC(C)(C)C2 [CBK286810]	99.6591
CCCn1c(SCC(=O)NCCN2C(=O)CSC2=O)n[nH]c1=O [CBK296976]	159.388
Cc1nc(CNCc2c(C)nn(C)c2N(C)C)cs1 [CBK304808]	110.839
N#CC(C(=O)CN1CCN(Cc2ccccc2)CC1)c1ccccc1 (stereo not drawn) [CBK269386]	128.187
Cc1ncc(CN2CCOC(c3cc(C(=O)NCC(C)C)c4ccccc4n3)C2)s1 (stereo not drawn) [CBK285897]	105.104
Cc1nc2ccccc2n1C(F)(F)C(F)F [CBK022023]	119.279
O=C(Cn1ccc(=O)[nH]c1=O)NCc1cccnc1OC1CCCC1 [CBK305582]	106.816
Cc1ccccc1C(=O)N1C[C@H]2NC(=O)c3ccccc3C(=O)[C@@]2(C)C1 [CBK285316]	143.599
CCCCNC(=O)NC1CCCC1 [CBK027084]	141.317

Entries from the list above containing bromine:
Compound	% of control remaining [%]
C[C@H]1CN2C[C@H](O)CC2CN1Cc1ccc(Br)s1 (stereo partly drawn) [CBK285439]	107.687
CC1=NN(c2ccccc2)C(=O)/C1=C1/C(=O)Nc2c(C)cc(Br)cc21 [CBK263950]	114.823

Next part:

Compound	% of control remaining [%]
O=C(Nc1ccncc1)c1cc2cc(Cl)ccc2[nH]1 [CBK107340]	131.2
O=C(CCc1cn2ccccc2n1)NCc1cc2n(n1)CCCNC2 [CBK307157]	132.668
Cc1nnc(SCc2cccc(Oc3ccccc3)c2)n1N [CBK265714]	150.493
O=C(CN1C(=O)N2CCCN=C2c2ccccc21)N1CCCC1 [CBK284419]	120.728
COc1cccc(CN2CCC(C(=O)O)CC2)c1OC [CBK286548]	131.298
CCn1cc(CN(Cc2cccnc2)Cc2ccccc2OC)cn1 [CBK307224]	127.286
O=C(O)C1N(Cc2ccccc2)CCCN1Cc1ccccc1 [CBK265196]	105.49
O=C(/C=C/c1cccnc1)Nc1c(F)cc(F)cc1OC1CCNCC1 [CBK050324T]	100
Cc1cc(F)c(S(=O)(=O)N2CCN(C)CC2)cc1NC(=O)c1cc2ccccc2o1 [CBK034419C]	103.944
Cn1cc(CN(Cc2ccccc2)CC2CCCO2)cn1 (stereo not drawn) [CBK283233]	140.402
Cc1cc2nc(C3CCCN3C(=O)CN3CCCCC3)[nH]c2cc1C (stereo not drawn) [CBK282944]	116.112
COc1cc(CNC(=O)NC(=O)C2CCN(C(C)C)CC2)cc(OC)c1OC [CBK034800]	113.911
O=C(Nc1ccccc1Cl)N1CCCCC1CO (stereo not drawn) [CBK156180]	100
Cc1cccc2sc(NC(=O)CCCCCNC(N)=O)nc12 [CBK296689]	137.504
Cc1n[nH]c(C)c1CCC(=O)N/N=C\c1ccc(Cl)c(Cl)c1 [CBK263395]	114.947
O=C(Nc1ccc2[nH]ncc2c1)c1ccccc1Cl [CBK000191]	106.052
Cc1ccc(NCC2CCN(CC(=O)Nc3cc(C)on3)C2)nc1 (stereo not drawn) [CBK306337]	150.697
O=S(=O)(c1ccc(OC(F)(F)F)cc1)N1CCN(Cc2ccc3c(c2)OCO3)CC1 [CBK200040]	126.761
